Laboratory results: paper PMC10403333
No constants are given. Whether binding was seen depends on the method and setting. Binding seen in cells or lysates may run through a third protein. Some entries that bind do so weakly or less than the wild type.

Sequences of proteins named here, by UniProt entry; tags and fusion partners are left off.
UniProt Q09472: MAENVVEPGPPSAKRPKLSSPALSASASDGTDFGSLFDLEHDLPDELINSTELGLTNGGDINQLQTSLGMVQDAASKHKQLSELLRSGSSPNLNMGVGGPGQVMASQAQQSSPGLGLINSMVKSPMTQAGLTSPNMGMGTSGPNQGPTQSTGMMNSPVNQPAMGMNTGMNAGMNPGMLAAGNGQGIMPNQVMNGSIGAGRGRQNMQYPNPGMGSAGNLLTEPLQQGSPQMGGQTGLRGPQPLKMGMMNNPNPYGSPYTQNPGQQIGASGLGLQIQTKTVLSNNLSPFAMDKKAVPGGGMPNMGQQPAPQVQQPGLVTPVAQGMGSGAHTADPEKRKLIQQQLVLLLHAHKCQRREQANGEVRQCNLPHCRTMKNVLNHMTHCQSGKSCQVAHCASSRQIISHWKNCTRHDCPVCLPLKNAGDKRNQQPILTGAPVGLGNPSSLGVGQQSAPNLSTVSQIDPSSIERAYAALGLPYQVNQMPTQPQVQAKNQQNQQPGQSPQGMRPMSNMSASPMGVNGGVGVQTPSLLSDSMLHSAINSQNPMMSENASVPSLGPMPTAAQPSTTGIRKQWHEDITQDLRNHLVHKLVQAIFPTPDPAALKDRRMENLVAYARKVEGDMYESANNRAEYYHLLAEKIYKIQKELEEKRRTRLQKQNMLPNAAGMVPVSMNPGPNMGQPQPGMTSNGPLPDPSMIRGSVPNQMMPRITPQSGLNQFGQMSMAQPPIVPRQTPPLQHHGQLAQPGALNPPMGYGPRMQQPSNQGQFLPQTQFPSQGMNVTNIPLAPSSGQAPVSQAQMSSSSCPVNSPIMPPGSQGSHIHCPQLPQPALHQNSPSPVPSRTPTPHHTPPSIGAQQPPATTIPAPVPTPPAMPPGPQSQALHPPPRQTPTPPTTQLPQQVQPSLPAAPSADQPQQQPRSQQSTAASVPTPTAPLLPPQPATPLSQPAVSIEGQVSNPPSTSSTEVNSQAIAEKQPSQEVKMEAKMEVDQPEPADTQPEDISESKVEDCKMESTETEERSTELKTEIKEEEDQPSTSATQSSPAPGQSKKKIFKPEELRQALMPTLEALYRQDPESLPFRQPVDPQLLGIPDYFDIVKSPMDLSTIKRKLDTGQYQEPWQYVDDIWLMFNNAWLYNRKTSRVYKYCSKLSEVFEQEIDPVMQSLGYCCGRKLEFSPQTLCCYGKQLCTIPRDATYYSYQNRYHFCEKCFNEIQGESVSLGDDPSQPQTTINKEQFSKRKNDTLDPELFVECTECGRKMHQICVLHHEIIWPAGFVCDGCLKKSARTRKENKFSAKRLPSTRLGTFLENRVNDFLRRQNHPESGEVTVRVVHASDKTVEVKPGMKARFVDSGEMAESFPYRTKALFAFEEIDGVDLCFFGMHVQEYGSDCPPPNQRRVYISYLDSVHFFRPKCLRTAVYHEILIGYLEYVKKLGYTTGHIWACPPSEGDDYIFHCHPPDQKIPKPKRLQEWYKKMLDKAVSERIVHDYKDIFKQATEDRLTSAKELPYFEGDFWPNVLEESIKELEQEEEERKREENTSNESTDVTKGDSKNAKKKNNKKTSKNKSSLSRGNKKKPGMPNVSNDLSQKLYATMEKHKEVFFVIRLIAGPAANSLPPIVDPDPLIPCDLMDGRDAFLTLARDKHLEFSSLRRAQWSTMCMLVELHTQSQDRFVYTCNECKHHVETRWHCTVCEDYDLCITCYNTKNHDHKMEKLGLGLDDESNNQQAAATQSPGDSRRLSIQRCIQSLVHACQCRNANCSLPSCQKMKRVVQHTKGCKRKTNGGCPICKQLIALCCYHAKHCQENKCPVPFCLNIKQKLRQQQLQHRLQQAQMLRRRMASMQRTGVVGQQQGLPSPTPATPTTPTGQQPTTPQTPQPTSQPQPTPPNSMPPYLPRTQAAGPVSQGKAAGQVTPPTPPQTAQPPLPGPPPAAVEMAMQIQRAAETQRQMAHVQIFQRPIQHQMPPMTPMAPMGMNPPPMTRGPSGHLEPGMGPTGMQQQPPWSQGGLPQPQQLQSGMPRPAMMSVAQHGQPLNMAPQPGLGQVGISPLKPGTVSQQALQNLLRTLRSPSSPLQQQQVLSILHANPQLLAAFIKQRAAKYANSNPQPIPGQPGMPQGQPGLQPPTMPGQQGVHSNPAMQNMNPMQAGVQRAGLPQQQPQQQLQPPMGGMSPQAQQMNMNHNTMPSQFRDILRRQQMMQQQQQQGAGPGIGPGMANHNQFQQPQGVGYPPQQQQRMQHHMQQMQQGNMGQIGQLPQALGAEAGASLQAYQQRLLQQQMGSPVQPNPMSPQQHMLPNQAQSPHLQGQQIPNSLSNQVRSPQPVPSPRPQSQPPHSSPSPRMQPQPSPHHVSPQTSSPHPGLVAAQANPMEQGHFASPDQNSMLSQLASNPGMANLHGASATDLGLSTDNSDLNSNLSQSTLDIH
UniProt P35638: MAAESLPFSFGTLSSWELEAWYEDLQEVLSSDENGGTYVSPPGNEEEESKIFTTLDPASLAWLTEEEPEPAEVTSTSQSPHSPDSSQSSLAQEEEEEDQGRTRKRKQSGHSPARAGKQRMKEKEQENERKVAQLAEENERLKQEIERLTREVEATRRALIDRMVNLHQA

T1: Apoptosis-Stimulating of P53 Protein 2 (ASPP2) (human (endogenous in AGS and MKN45)) (UniProt Q13625)
T1 sequence: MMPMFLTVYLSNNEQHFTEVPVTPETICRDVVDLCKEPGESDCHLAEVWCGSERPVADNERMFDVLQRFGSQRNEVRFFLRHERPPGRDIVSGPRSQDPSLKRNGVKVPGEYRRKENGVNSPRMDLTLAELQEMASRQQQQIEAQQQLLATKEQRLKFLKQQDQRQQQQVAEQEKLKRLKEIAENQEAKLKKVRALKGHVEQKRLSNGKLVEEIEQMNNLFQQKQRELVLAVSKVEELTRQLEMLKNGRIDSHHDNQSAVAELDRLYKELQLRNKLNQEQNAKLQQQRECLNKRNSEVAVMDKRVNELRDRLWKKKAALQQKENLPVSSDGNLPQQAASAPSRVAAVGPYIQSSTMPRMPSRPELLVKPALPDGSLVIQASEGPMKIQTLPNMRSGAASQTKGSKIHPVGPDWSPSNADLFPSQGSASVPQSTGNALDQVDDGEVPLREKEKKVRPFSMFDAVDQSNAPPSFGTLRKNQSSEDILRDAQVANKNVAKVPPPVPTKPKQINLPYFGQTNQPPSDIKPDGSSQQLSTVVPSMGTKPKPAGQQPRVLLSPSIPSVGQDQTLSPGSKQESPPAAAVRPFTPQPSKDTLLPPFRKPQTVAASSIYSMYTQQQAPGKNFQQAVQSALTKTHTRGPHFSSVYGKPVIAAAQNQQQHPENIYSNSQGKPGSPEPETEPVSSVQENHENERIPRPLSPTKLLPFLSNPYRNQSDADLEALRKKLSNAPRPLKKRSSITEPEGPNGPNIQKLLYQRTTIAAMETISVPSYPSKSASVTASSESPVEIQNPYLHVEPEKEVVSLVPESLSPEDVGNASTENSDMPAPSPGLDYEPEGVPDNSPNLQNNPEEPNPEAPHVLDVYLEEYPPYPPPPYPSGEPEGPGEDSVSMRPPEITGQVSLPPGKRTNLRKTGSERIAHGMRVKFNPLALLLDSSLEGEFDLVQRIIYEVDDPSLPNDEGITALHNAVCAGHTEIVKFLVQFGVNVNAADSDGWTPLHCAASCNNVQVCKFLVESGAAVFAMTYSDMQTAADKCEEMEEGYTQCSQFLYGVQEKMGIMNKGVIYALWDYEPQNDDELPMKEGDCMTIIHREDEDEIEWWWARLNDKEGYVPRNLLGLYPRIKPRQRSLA


How the values were obtained:
[1] = target: T1, Apoptosis-Stimulating of P53 Protein 2 (ASPP2) (human (endogenous in AGS and MKN45)); assay: co-IP; endogenous proteins; lysates of MKN45 cells infected with H. pylori at 90 MOI for the indicated times; antibodies against ASPP2 on protein G beads, 16 h; immunoblot
[2] = target: p300 (human (endogenous in AGS and MKN45)) (UniProt Q09472); assay: co-IP; endogenous proteins; lysates of MKN45 cells infected with H. pylori at 90 MOI for the indicated times, then 10 μM MG132 for 3 h; antibodies against p300 or CHOP on protein A beads, 16 h; immunoblot
[3] = target: T1, Apoptosis-Stimulating of P53 Protein 2 (ASPP2) (human (endogenous in AGS and MKN45)); assay: co-IP; endogenous proteins; lysates of AGS cells (shCtrl and shASPP2) infected with H. pylori at 30 MOI for 8 h (Figure 5(a)) or for the indicated times (Figure 6(b)); antibodies against ASPP2 or CHOP on protein G beads, 16 h, 4°C; immunoblot
[4] = target: p300 (human (endogenous in AGS and MKN45)) (UniProt Q09472); assay: co-IP; endogenous proteins; lysates of AGS cells (shCtrl and shASPP2) infected with H. pylori at 30 MOI for 8 h (Figure 5(b)) or for the indicated times (Figure 6(c)), then 10 μM MG132 for 3 h; antibodies against p300 or CHOP on protein A beads, 16 h; immunoblot
[5] = target: CHOP (human (endogenous in AGS and MKN45)) (UniProt P35638); assay: co-IP; endogenous proteins; lysates of AGS cells (shCtrl and shASPP2) infected with H. pylori at 30 MOI for 8 h (Figure 5(a)) or for the indicated times (Figure 6(b)); antibodies against ASPP2 or CHOP on protein G beads, 16 h, 4°C; immunoblot

binding [1] | binding [2] | binding [3] | binding [4] | binding [5] | Molecule
binds | binds | binds | binds |  | CHOP (from UniProt P35638 1-169)
 |  |  |  | binds | Apoptosis-Stimulating of P53 Protein 2 (ASPP2) (protein, UniProt Q13625 1-1128) MMPMFLTVYLSNNEQHFTEVPVTPETICRDVVDLCKEPGESDCHLAEVWCGSERPVADNERMFDVLQRFGSQRNEVRFFLRHERPPGRDIVSGPRSQDPSLKRNGVKVPGEYRRKENGVNSPRMDLTLAELQEMASRQQQQIEAQQQLLATKEQRLKFLKQQDQRQQQQVAEQEKLKRLKEIAENQEAKLKKVRALKGHVEQKRLSNGKLVEEIEQMNNLFQQKQRELVLAVSKVEELTRQLEMLKNGRIDSHHDNQSAVAELDRLYKELQLRNKLNQEQNAKLQQQRECLNKRNSEVAVMDKRVNELRDRLWKKKAALQQKENLPVSSDGNLPQQAASAPSRVAAVGPYIQSSTMPRMPSRPELLVKPALPDGSLVIQASEGPMKIQTLPNMRSGAASQTKGSKIHPVGPDWSPSNADLFPSQGSASVPQSTGNALDQVDDGEVPLREKEKKVRPFSMFDAVDQSNAPPSFGTLRKNQSSEDILRDAQVANKNVAKVPPPVPTKPKQINLPYFGQTNQPPSDIKPDGSSQQLSTVVPSMGTKPKPAGQQPRVLLSPSIPSVGQDQTLSPGSKQESPPAAAVRPFTPQPSKDTLLPPFRKPQTVAASSIYSMYTQQQAPGKNFQQAVQSALTKTHTRGPHFSSVYGKPVIAAAQNQQQHPENIYSNSQGKPGSPEPETEPVSSVQENHENERIPRPLSPTKLLPFLSNPYRNQSDADLEALRKKLSNAPRPLKKRSSITEPEGPNGPNIQKLLYQRTTIAAMETISVPSYPSKSASVTASSESPVEIQNPYLHVEPEKEVVSLVPESLSPEDVGNASTENSDMPAPSPGLDYEPEGVPDNSPNLQNNPEEPNPEAPHVLDVYLEEYPPYPPPPYPSGEPEGPGEDSVSMRPPEITGQVSLPPGKRTNLRKTGSERIAHGMRVKFNPLALLLDSSLEGEFDLVQRIIYEVDDPSLPNDEGITALHNAVCAGHTEIVKFLVQFGVNVNAADSDGWTPLHCAASCNNVQVCKFLVESGAAVFAMTYSDMQTAADKCEEMEEGYTQCSQFLYGVQEKMGIMNKGVIYALWDYEPQNDDELPMKEGDCMTIIHREDEDEIEWWWARLNDKEGYVPRNLLGLYPRIKPRQRSLA
